# Data as given in PubChem BioAssay AID720505 (Drosophila RNAi Screening Center, 2013).
# Test: 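Knock-downs that reduce calcium influx once internal stores are emptied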 (primary screen)
# System: Drosophila S2R+ cells
# Knock-down reagent: long dsRNA against Drosophila genes
# Conditions: thapsigargin (2 µM) in calcium-free buffer to empty internal stores, then 2 mM calcium added back
# Read-out: 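Stores emptied by 2 µM thapsigargin without calcium, then 2 mM calcium re-added; fluo-4 fluorescence followed by FLIPR in 384-well plates, per-well averaged endpoint, raw; two screen passes, some wells retested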
# Scale: calcium signal and retest calcium signal: higher = more calcium entry after store depletion
# Active means: 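About 1500 genes called as lowering calcium entry, by varying amounts, judged against per-plate control wells with STIM1 as positive and Rho1 as negative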
# Calls: active = called as lowering calcium entry; inactive = not called
# The screen tested about 20,000 reagents; below is a random part of those with a known target gene and a result. In the full data, about 2,100 (10%) were called active. 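Raw plate signals without normalisation; calls rest on control-based scores that were not deposited; replicate 2 separates called from uncalled poorly.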 Names joined by + are all predicted targets of the reagent. Not stated in the record: the amount of reagent, the time to read-out.
"calcium signal, replicate 1","calcium signal, replicate 2","retest calcium signal, replicate 1","retest calcium signal, replicate 2",activity call,predicted target,dsRNA
77.2,137,,,inactive,CG30288,DRSC22005
177,260,,,inactive,Dnaaf3 (Dynein axonemal assembly factor 3),DRSC06684
,,,,active,Tsp68C (Tetraspanin 68C),DRSC09295
101,163,,,inactive,Rrp42,DRSC07161
150,110,,,inactive,I-t (inhibitor-t),DRSC16713
71.5,155,,,active,CG6739,DRSC02987
132,156,,,inactive,Or22c (Odorant receptor 22c),DRSC00766
196,170,,,inactive,cnk (connector enhancer of ksr),DRSC07595
211,131,,,inactive,RluA-1 (RluA pseudouridine synthase 1),DRSC02240
147,120,,,inactive,RluA-1 (RluA pseudouridine synthase 1),DRSC03060
60.1,89,,,active,CR18166 (pseudo),DRSC18147
148,83.8,,,inactive,CG6567,DRSC16066
130,128,,,inactive,CG1578,DRSC19729
161,194,,,inactive,CG9849,DRSC04573
107,88.9,,,inactive,Usp1 (Ubiquitin specific protease 1),DRSC14155
81.5,60.7,,,inactive,Kah (Kahuli),DRSC08515
144,165,,,inactive,sxe2 (sex-specific enzyme 2),DRSC15692
74.3,179,,,inactive,CG43108,DRSC05654
99.1,73.3,,,inactive,CG15784,DRSC18090
87.2,192,,,inactive,CG12374,DRSC06143
114,101,,,inactive,CG33998,DRSC05747
83.9,149,,,inactive,CG17508,DRSC07771
169,130,,,inactive,KCNQ (KCNQ potassium channel),DRSC06121
83.7,91.2,,,inactive,KCNQ (KCNQ potassium channel),DRSC06230
161,114,,,inactive,vkg (viking),DRSC03632
156,108,,,inactive,l(2)k14505 (lethal (2) k14505),DRSC03106
119,89.7,,,inactive,sosie,DRSC14636
160,95.9,,,inactive,sosie,DRSC21382
166,158,,,inactive,Mettl2 (Methyltransferase like 2),DRSC08398
114,115,,,active,eIF3b (eukaryotic translation initiation factor 3 subunit b),DRSC06900
91.8,134,,,inactive,CG8778,DRSC07264
141,120,,,inactive,Dora (Dorado),DRSC19614
123,119,,,inactive,Dora (Dorado),DRSC19781
122,101,,,inactive,Dora (Dorado),DRSC20034
117,98.3,,,inactive,Dora (Dorado),DRSC20035

Targets above whose gene name begins with S or s (3):
"calcium signal, replicate 1","calcium signal, replicate 2","retest calcium signal, replicate 1","retest calcium signal, replicate 2",activity call,predicted target,dsRNA
144,165,,,inactive,sxe2 (sex-specific enzyme 2),DRSC15692
119,89.7,,,inactive,sosie,DRSC14636
160,95.9,,,inactive,sosie,DRSC21382

More results follow:
"calcium signal, replicate 1","calcium signal, replicate 2","retest calcium signal, replicate 1","retest calcium signal, replicate 2",activity call,predicted target,dsRNA
88.6,98.6,,,inactive,CG11723,DRSC00324
71.8,95.2,,,inactive,CG9018,DRSC08618
47.2,58.7,,,active,Prosbeta6 (Proteasome beta6 subunit),DRSC11256
88.7,161,,,inactive,Scgdelta (Sarcoglycan delta),DRSC18544
272,112,,,inactive,CHES-1-like (Checkpoint suppressor 1-like),DRSC18447
101,157,,,inactive,CG14635,DRSC17945
274,116,,,inactive,CG10669,DRSC14261
142,138,,,inactive,CG18747,DRSC15384
132,153,,,inactive,Dscam3 (Down syndrome cell adhesion molecule 3),DRSC14525
134,158,,,inactive,Dscam3 (Down syndrome cell adhesion molecule 3),DRSC16376
110,86.7,,,inactive,CG10376,DRSC02049
81.5,169,,,inactive,Nagk (N-acetylglucosamine kinase),DRSC15994
65,96,,,active,CG1774,DRSC15258
97,115,,,inactive,CG10793,DRSC17760
179,124,,,inactive,insc (inscuteable),DRSC04695
172,98.3,,,inactive,px (plexus),DRSC04708
92.9,125,,,inactive,px (plexus),DRSC23244
205,239,,,inactive,CG10184,DRSC14204
85.5,141,,,inactive,Nipped-B,DRSC07815
96.7,129,,,inactive,CG5910,DRSC11786
153,163,,,inactive,Epac (Exchange protein directly activated by cAMP),DRSC04969
193,98.3,,,inactive,Epac (Exchange protein directly activated by cAMP),DRSC04996
168,207,,,inactive,Epac (Exchange protein directly activated by cAMP),DRSC04997
110,109,,,inactive,CG33120,DRSC02073
73.7,5281,,,inactive,CR31700 (pseudo),DRSC03682
118,73.7,,,inactive,Ir94d (Ionotropic receptor 94d),DRSC21568
117,178,,,inactive,snoRNA:Me28S-C3420b + RpS11,DRSC07396
85.5,137,,,inactive,CG11437,DRSC11659
72.8,113,,,active,DIP2 (DISCO Interacting Protein 2),DRSC08582
142,258,,,inactive,CG7029,DRSC16177
135,178,,,inactive,Ns1 (Nucleostemin 1),DRSC15529
189,147,,,inactive,Su(var)2-10 (Suppressor of variegation 2-10),DRSC07721
114,81,,,inactive,PGRP-SD (Peptidoglycan recognition protein SD),DRSC10856
141,146,,,inactive,Tsp29Fa (Tetraspanin 29Fa),DRSC03232
93.8,121,,,inactive,Cog4 (Component of oligomeric golgi complex 4),DRSC03057
112,117,,,inactive,CG9801,DRSC16568
95.3,99.2,,,inactive,Ir68b (Ionotropic receptor 68b),DRSC10251
163,87.7,137,84.7,inactive,fz2 (frizzled 2),DRSC10087
88.5,189,,,inactive,fz2 (frizzled 2),DRSC11349
122,104,,,inactive,pll (pelle),DRSC17026
111,136,102,162,inactive,CG15084,DRSC06515
155,115,,,inactive,CG15084,DRSC21403
136,158,,,inactive,CG11123,DRSC06040
194,124,,,inactive,Kap-alpha3 (karyopherin alpha3),DRSC16976
79.9,130,,,inactive,Aps (Aps pyrophosphatase),DRSC10629
116,109,,,inactive,CG13766,DRSC02271
67.7,69.5,,,active,spn-F,DRSC14475
213,243,,,inactive,Wdr37 (WD repeat domain 37),DRSC14500
